Source: PubChem BioAssay AID1259308 (NCATS, 2017)
Screen: 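Candidate targets for better recombinant protein yield in mammalian cells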 (primary screen). Cells: human HEK293 embryonic kidney cells stably expressing firefly luciferase (HEK-CMV-Luc2-Hygro). Knock-down reagent: single siRNA against human genes, 0.8 pmol siRNA per well. Timing: 72 h. Measurement: 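Reporter luminescence and viable-cell signal on separate replicate plates, given as percent of non-targeting control and median/MAD z-scores, plus per-cell luciferase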. Reading the numbers: total luciferase, z-score and total luciferase, % of control: higher = more reporter protein produced; luciferase per cell, z-score: higher = more reporter output per viable cell; viable cells, % of control: higher = more viable cells. Rule for the call: 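An siRNA counts as active if its total luciferase robust z-score exceeds 3; genes with two or more such siRNAs out of three were retested with fresh siRNAs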. Calls: active = raised luciferase; inactive = no rise.
The whole screen tested about 59,000 reagents; below is a part drawn at random. About 1,510 of them (2.6%) count as active. 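Calls use total luciferase alone and ignore viability, so some active siRNAs may act by altering cell number.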 A number with no mark means an inactive call. Reagents against one gene are numbered here. No sequences are given here.

| Gene | siRNA no. | total luciferase, z-score | total luciferase, % of control | luciferase per cell, z-score | viable cells, % of control |
| --- | --- | --- | --- | --- | --- |
| SNX31 | 1 | 0.144 | 84.8 | 0.111 | 92 |
| SNX31 | 2 | -0.219 | 77.5 | -0.233 | 92.1 |
| SNX31 | 3 | -0.0786 | 80.3 | -0.015 | 90.1 |
| AVPR1B | 1 | 1.37 | 109 | 0.552 | 105 |
| AVPR1B | 2 | 1.55 | 113 | 1.43 | 86.6 |
| AVPR1B | 3 | -0.604 | 69.9 | -0.16 | 81.4 |
| PDIA2 | 1 | 0.122 | 84.3 | -0.331 | 103 |
| PDIA2 | 2 | -0.695 | 68.1 | -1.25 | 106 |
| PDIA2 | 3 | 0.488 | 91.6 | 0.727 | 84.5 |
| LENEP | 1 | 2.02 | 122 | 0.422 | 122 |
| LENEP | 2 | 0.706 | 95.9 | 0.24 | 101 |
| LENEP | 3 | -0.676 | 68.4 | -0.678 | 91.4 |
| SGTB | 1 | 0.667 | 95.1 | 0.719 | 88 |
| SGTB | 2 | -0.168 | 78.6 | -0.255 | 93.9 |
| SGTB | 3 | -0.189 | 78.1 | -0.483 | 99.1 |
| EIF4G2 | 1 | 0.0291 | 82.5 | 0.0317 | 91.4 |
| EIF4G2 | 2 | 0.186 | 85.6 | -0.262 | 102 |
| EIF4G2 | 3 | 1.81 | 118 | 2.05 | 76.9 |
| SLC31A1 | 1 | 0.175 | 85.4 | 0.118 | 92.5 |
| SLC31A1 | 2 | -1.85 | 45.2 | -2.41 | 95.2 |
| SLC31A1 | 3 | 1.48 | 111 | 0.57 | 107 |
| CFAP36 | 1 | -0.871 | 64.6 | -0.271 | 77.5 |
| CFAP36 | 2 | -0.351 | 74.9 | -0.588 | 97.7 |
| CFAP36 | 3 | -0.528 | 71.4 | -1.07 | 106 |
| TGOLN2 | 1 | -2.21 | 37.9 | -1.61 | 64.7 |
| TGOLN2 | 2 | -2.15 | 39.1 | -3.13 | 99.6 |
| TGOLN2 | 3 | 0.855 | 98.9 | 0.437 | 98.5 |
| NTM | 1 | -2.27 | 36.7 | -1.19 | 56.1 |
| NTM | 2 | -1.14 | 59.2 | -1.22 | 91.1 |
| NTM | 3 | 0.155 | 85 | 0.268 | 88.5 |
| EPPK1 | 1 | -1.41 | 53.8 | -1.32 | 85.2 |
| EPPK1 | 2 | 0.883 | 99.4 | 0.312 | 102 |
| EPPK1 | 3 | -2.08 | 40.6 | -1.39 | 65.4 |
| TOP3B | 1 | 0.483 | 91.5 | 0.759 | 83.7 |
| TOP3B | 2 | 0.696 | 95.7 | 0.141 | 103 |
| TOP3B | 3 | -0.209 | 77.7 | 1.12 | 64.7 |
| SFT2D1 | 1 | -1.06 | 60.8 | -1.28 | 95.2 |
| SFT2D1 | 2 | -0.43 | 73.3 | -0.0278 | 82.5 |
| SFT2D1 | 3 | -0.0427 | 81 | -0.288 | 97.7 |
| THEM4 | 1 | 0.598 | 93.8 | 0.496 | 92 |
| THEM4 | 2 | 0.36 | 89 | 1.84 | 61.4 |
| THEM4 | 3 | -0.996 | 62.1 | -1.5 | 103 |
| TCAF1 | 1 | -2.56 | 31 | -1.13 | 46.6 |
| TCAF1 | 2 | -1.38 | 54.4 | -1.02 | 79.5 |
| TCAF1 | 3 | 0.455 | 90.9 | -0.367 | 112 |
| NMD3 | 1 | -1.22 | 57.7 | -1.77 | 103 |
| NMD3 | 2 | -0.168 | 78.6 | 0.081 | 85.9 |
| NMD3 | 3 | -0.183 | 78.2 | -0.792 | 108 |
| SCN11A | 1 | 0.874 | 99.3 | 0.78 | 90.3 |
| SCN11A | 2 | -0.412 | 73.7 | -0.516 | 94.3 |
| SCN11A | 3 | 1.41 | 110 | 0.0643 | 121 |
| SSR2 | 1 | 1.46 | 111 | 1.04 | 94.1 |
| SSR2 | 2 | -0.966 | 62.7 | 1.33 | 49.4 |
| SSR2 | 3 | -0.092 | 80.1 | -0.236 | 95.2 |
| PTPA | 1 | 7.12 (active) | 223 | 5.4 | 60.3 |
| PTPA | 2 | 0.315 | 88.2 | -0.105 | 101 |
| PTPA | 3 | 1.61 | 114 | 0.127 | 123 |
| NWD2 | 1 | 2.78 | 137 | 1.47 | 104 |
| NWD2 | 2 | 0.118 | 84.2 | -0.476 | 107 |
| NWD2 | 3 | -1.34 | 55.2 | -1.24 | 85.5 |
| DHTKD1 | 1 | -0.262 | 76.7 | 0.523 | 74.7 |
| DHTKD1 | 2 | -0.478 | 72.4 | 0.689 | 67.5 |
| DHTKD1 | 3 | -0.723 | 67.5 | -0.673 | 90.1 |
| UGT2B10 | 1 | -0.601 | 69.9 | -0.392 | 86.6 |
| UGT2B10 | 2 | -0.0253 | 81.4 | -0.36 | 100 |
| UGT2B10 | 3 | 1.16 | 105 | 0.546 | 102 |
| NBAS | 1 | 0.479 | 91.4 | -0.109 | 105 |
| NBAS | 2 | -1.27 | 56.6 | -2.31 | 116 |
| NBAS | 3 | 1.94 | 121 | 1.37 | 93.9 |
| RNF167 | 1 | 2.11 | 124 | 0.967 | 107 |
| RNF167 | 2 | 1.57 | 113 | 1.1 | 94.5 |
| RNF167 | 3 | 0.249 | 86.8 | -0.421 | 108 |
| RNPC3 | 1 | 2.17 | 125 | 1.63 | 91.1 |
| RNPC3 | 2 | 0.193 | 85.7 | -0.282 | 103 |
| RNPC3 | 3 | 0.522 | 92.3 | 0.712 | 85.5 |

Just “luciferase per cell, z-score” (7 entries from above):
TGOLN2 #2 = -3.13
TGOLN2 #3 = 0.437
NTM #1 = -1.19
NTM #2 = -1.22
NTM #3 = 0.268
EPPK1 #1 = -1.32
EPPK1 #2 = 0.312
